Assay results taken from US20010007020A1 (HOECHST AKTIENGESELLSCHAFT, priority 1997, published 2001).

Test: solid-phase peptide synthesis
Details: whole synthesis; for isolated yield: of theory, scale of the general procedure 0.1 mmol
[1] = one disulfide bridge, sequence written open
[2] = scale 0.1 mmol, one disulfide bridge, sequence written open

DNIDPNAVGNL-NH2
isolated mass: 268 mg
isolated yield: 67% of theory

DNIDPNAVGNLKCIYNTAGFYCDR-NH2
isolated yield [1]: 13.5% of theory
isolated mass [1]: 36 mg
crude mass [2]: 145 mg
crude yield [2]: 54%
